Data: article doi:10.1101/399980
Results are given in words; binding and its absence hold for the method and conditions named. Binding seen in cells or lysates may run through a third protein. Some results given as binding are weak or reduced against the parent protein; the word gives no strength.

Chains of the proteins cited; added tags and fusions are not shown.
UniProt P46937: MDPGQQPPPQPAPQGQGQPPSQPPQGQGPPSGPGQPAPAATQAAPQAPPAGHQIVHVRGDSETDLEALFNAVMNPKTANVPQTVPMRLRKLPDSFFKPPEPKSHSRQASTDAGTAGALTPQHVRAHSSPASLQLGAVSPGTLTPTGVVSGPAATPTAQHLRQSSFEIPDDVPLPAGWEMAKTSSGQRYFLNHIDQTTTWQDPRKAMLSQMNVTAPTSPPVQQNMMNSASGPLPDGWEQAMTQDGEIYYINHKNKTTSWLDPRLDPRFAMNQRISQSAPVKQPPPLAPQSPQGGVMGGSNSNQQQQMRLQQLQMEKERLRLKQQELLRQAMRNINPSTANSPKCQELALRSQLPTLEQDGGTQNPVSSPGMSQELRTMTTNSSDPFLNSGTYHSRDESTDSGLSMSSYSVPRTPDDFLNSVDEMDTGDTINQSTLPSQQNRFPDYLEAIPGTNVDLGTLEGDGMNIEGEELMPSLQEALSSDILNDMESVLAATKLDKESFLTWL

Tests used:
[1] = target: Yes-associated protein (YAP) (human (endogenous in NTERT)) (UniProt P46937); assay: co-IP
[2] = target: YAP phosphorylated at S127 (pYAP-S127) (human (endogenous in NTERT)) (UniProt P46937); assay: co-IP

binding [1]: binds
binding [2]: binds
B1: Desmoglein-3 (Dsg3) (protein, UniProt P32926 50-999)
chain: EWVKFAKPCREGEDNSKRNPIAKITSDYQATQKITYRISGVGIDQPPFGIFVVDKNTGDINITAIVDREETPSFLITCRALNAQGLDVEKPLILTVKILDINDNPPVFSQQIFMGEIEENSASNSLVMILNATDADEPNHLNSKIAFKIVSQEPAGTPMFLLSRNTGEVRTLTNSLDREQASSYRLVVSGADKDGEGLSTQCECNIKVKDVNDNFPMFRDSQYSARIEENILSSELLRFQVTDLDEEYTDNWLAVYFFTSGNEGNWFEIQTDPRTNEGILKVVKALDYEQLQSVKLSIAVKNKAEFHQSVISRYRVQSTPVTIQVINVREGIAFRPASKTFTVQKGISSKKLVDYILGTYQAIDEDTNKAASNVKYVMGRNDGGYLMIDSKTAEIKFVKNMNRDSTFIVNKTITAEVLAIDEYTGKTSTGTVYVRVPDFNDNCPTAVLEKDAVCSSSPSVVVSARTLNNRYTGPYTFALEDQPVKLPAVWSITTLNATSALLRAQEQIPPGVYHISLVLTDSQNNRCEMPRSLTLEVCQCDNRGICGTSYPTTSPGTRYGRPHSGRLGPAAIGLLLLGLLLLLLAPLLLLTCDCGAGSTGGVTGGFIPVPDGSEGTIHQWGIEGAHPEDKEITNICVPPVTANGADFMESSEVCTNTYARGTAVEGTSGMEMTTKLGAATESGGAAGFATGTVSGAASGFGAATGVGICSSGQSGTMRTRHSTGGTNKDYADGAISMNFLDSYFSQKAFACAEEDDGQEANDCLLIYDNEGADATGSPVGSVGCCSFIADDLDDSFLDSLGPKFKKLAEISLGVDGEGKEVQPPSKDSGYGIESCGHPIEVQQTGFVKCQTLSGSQGASALSTSGSVQPAVSIPDPLQHGNYLVTETYSASGSLVQPSTAGFDPLLTQNVIVTERVICPISSVPGNLAGPTQLRGSHTMLCTEDPCSRLI
